# No constants are given. Whether binding was seen depends on the method and setting. Binding seen in cells or lysates may run through a third protein. Here binding means that the protein was enriched with, or labelled near, the bait; the list need not be complete. Tags and fused reporters may be left off the sequences shown.
# Biological target: T1, Flag-C2CD4A (C2 calcium dependent domain containing 4A), expressed in 293T cells (human) (UniProt Q8NCU7)
# T1 sequence: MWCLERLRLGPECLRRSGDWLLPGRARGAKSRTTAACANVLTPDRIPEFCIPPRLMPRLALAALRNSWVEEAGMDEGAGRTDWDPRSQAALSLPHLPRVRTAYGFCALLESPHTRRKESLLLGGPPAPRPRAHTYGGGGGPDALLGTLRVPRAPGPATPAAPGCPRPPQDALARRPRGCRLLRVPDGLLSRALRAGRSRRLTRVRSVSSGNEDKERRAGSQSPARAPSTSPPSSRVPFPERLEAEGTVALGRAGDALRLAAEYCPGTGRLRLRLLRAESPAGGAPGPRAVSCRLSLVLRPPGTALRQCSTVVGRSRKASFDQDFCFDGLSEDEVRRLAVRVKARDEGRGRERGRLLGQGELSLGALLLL
# Assay: affinity purification with mass spectrometry; 293 T cells transfected with Flag-C2CD4A, lysed in RIPA buffer (20 mM Tris-HCl pH 8, 137 mM NaCl, 0.5% Triton X-100, 2 mM EDTA); Flag-M2 agarose beads overnight, eluted by Flag peptides; SDS-PAGE bands specific to Flag-C2CD4A analysed by mass spectrometry; Flag-vector as control
substance,measurement,value
p53 found in the Flag-C2CD4A immunoprecipitate from 293T cells (from UniProt P04637 1-393),binding,binds

# Source: publication PMC8520208
